Data taken from PMC7819943, “Rice protein-binding microarrays: a tool to detect cis-acting elements near promoter regions in rice”.
The other results are listed elsewhere or left out.

Amino acid sequences for entries named in this document (tags omitted).
UniProt Q0JBA9, entry or part of it: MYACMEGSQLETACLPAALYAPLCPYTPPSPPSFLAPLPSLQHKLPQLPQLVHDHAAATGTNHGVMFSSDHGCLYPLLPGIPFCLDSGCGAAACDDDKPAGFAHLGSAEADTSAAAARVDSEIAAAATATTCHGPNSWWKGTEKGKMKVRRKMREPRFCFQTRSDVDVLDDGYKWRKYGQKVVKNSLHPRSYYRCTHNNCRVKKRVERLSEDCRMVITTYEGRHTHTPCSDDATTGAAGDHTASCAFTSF

molecular target: OsWRKY34 (Oryza sativa, UniProt Q0JBA9 1-250); assay: protein-binding microarray (RPBM); PBS, 2% BSA, 51.3 ng/ul salmon testes DNA, 50 uM zinc acetate, 200 nM TF, 25 C, 1 h; high values mean tight binding; conditions: protein: recombinant; tags: N-terminal polyhistidine and DsRed monomer fusion (pET32a); label: CyDye5-dUTP incorporated in the synthesized complementary strand; 3' TTTTT single-stranded linker to array surface; dsDNA, one strand shown
How it was run: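 Binding signal is defined as the fluorescence intensity of each feature in arbitrary units, read on an Axon 4000B scanner. Transcription factors with N-terminal polyhistidine and DsRed fusions came from E. coli BL21-CodonPlus and were purified on Ni–NTA. They were incubated at 200 nM for 1 h at 25 °C on a custom Agilent array that had been made double-stranded with Cy5-dUTP, with 50 µM zinc acetate present, and the array was washed.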

| Sequence | binding signal |
| --- | --- |
| GATTGCTTTGTGGGTGTATGGTTCATCTTCAATGGTTTACCGGAGTCACCTAGTGCAG | 8030 fluorescence intensity (a.u.) |
| CTCGCCGCCGTCCTGCCCGCCTCCACCCTTTCGCCTCCTCCGGAGTCACCTAGTGCAG | 8200 fluorescence intensity (a.u.) |
| GAAGCCGCAGCGGTGCGTTTCCATGTGGCGAATATTTCCACGGAGTCACCTAGTGCAG | 8250 fluorescence intensity (a.u.) |
| TTTTCTTTTTCTTTTTTCTGTTCTTCAGGCAACAAACTGGCGGAGTCACCTAGTGCAG | 9200 fluorescence intensity (a.u.) |
| ATATATATTGTGGATACCTTTCTGTAAAGTCTCTTTCAAACGGAGTCACCTAGTGCAG | 10800 fluorescence intensity (a.u.) |
| ACTTGATTTTCTTGATTTACGAGATGGAGTTTTGCCTGTTCGGAGTCACCTAGTGCAG | 9080 fluorescence intensity (a.u.) |
| GCGGCCGCGCGATTTCTAGGGTTTTGGGTCCTTTGCTCGGCGGAGTCACCTAGTGCAG | 8270 fluorescence intensity (a.u.) |
| ACCGTGGGCAATGTTTTCAAAGTTTGACCGCATTGTTCTGCGGAGTCACCTAGTGCAG | 9490 fluorescence intensity (a.u.) |
| CGCTTTTCTACCTCAACACGCCTCGTTCTTCTTCTTCTCTCGGAGTCACCTAGTGCAG | 9080 fluorescence intensity (a.u.) |
| CCTCCGTTTCATATTATAAGACTTTCTGGCATTGCCAACACGGAGTCACCTAGTGCAG | 8950 fluorescence intensity (a.u.) |
| ATACTTCCTTTCTGTTTCCAGTGTCTCTCTTCATGCACTCCGGAGTCACCTAGTGCAG | 10700 fluorescence intensity (a.u.) |
| GGATTTATGTAATTTTTTTCTCTACGTATATATTCCATCACGGAGTCACCTAGTGCAG | 10900 fluorescence intensity (a.u.) |
| CCTGCACCTTGTGGCGGCCGTAGCTCGCTCTCGCTCTCGCCGGAGTCACCTAGTGCAG | 9150 fluorescence intensity (a.u.) |
| CTGACTCGGACGACGACATCGCCTTCGCCGCTTTCACAGTCGGAGTCACCTAGTGCAG | 8040 fluorescence intensity (a.u.) |
| TCGCCCTTTTTTACCGCGTTGACGGAATCAGATTCGTTTTCGGAGTCACCTAGTGCAG | 8370 fluorescence intensity (a.u.) |
| CACTTTCTGTTTCTGACACTCTTGCCCAAGTTTCCTAGTTCGGAGTCACCTAGTGCAG | 13600 fluorescence intensity (a.u.) |
| ATGTCATGTCATGTCGCATATCTCCCATGTCTTGGCACGACGGAGTCACCTAGTGCAG | 9540 fluorescence intensity (a.u.) |
| CCTTCCTTTCCAGCTCGGTTTGCTAACTCATGGTCTCCTCCGGAGTCACCTAGTGCAG | 9750 fluorescence intensity (a.u.) |
| CCACTAGGAGTGATAATTCTTTGATTTCATACCACTTTCTCGGAGTCACCTAGTGCAG | 8310 fluorescence intensity (a.u.) |
| GTCTCGTCTCGTCTCGTCTCGTCTCGTGTCGCCTCAACCCCGGAGTCACCTAGTGCAG | 10500 fluorescence intensity (a.u.) |
| TAAACAAAGCTTAATTTCACTTTTGTCGATTTATTTTAAACGGAGTCACCTAGTGCAG | 8220 fluorescence intensity (a.u.) |
| CCACCGAAAAATGTTTCACCTAGTATACTTACAATGTTTCCGGAGTCACCTAGTGCAG | 8500 fluorescence intensity (a.u.) |
| ATAAAATATACGACACACTTATACTTACACTCAATTTTCTCGGAGTCACCTAGTGCAG | 9070 fluorescence intensity (a.u.) |
| CCCTTTTTTATTATTCGTATTTTATGTTATATGTATATTTCGGAGTCACCTAGTGCAG | 9090 fluorescence intensity (a.u.) |
| AGTAGTGTTGAATCTGAGTTATGCTGTGGGATATCGTCGACGGAGTCACCTAGTGCAG | 8340 fluorescence intensity (a.u.) |
| CCGTTCGCTTGAAATCCATCCCATCCATCCTTGGCTTACTCGGAGTCACCTAGTGCAG | 8420 fluorescence intensity (a.u.) |
| ATAAGCTCCGGCATCATCTCCATCATCTCATAGTCCTCTTCGGAGTCACCTAGTGCAG | 9450 fluorescence intensity (a.u.) |

An excerpt from further up, for reference:

| Sequence | binding signal |
| --- | --- |
| TAAACAAAGCTTAATTTCACTTTTGTCGATTTATTTTAAACGGAGTCACCTAGTGCAG | 8220 fluorescence intensity (a.u.) |
| CCACCGAAAAATGTTTCACCTAGTATACTTACAATGTTTCCGGAGTCACCTAGTGCAG | 8500 fluorescence intensity (a.u.) |

More records follow.

| Sequence | binding signal |
| --- | --- |
| TAGATTCCACCTTAAAATTTTTCACTCTGTCACATCGAACCGGAGTCACCTAGTGCAG | 9300 fluorescence intensity (a.u.) |
| GATGCATATCAATCTAGCATTGCCGGTCAACGTTCTCGAGCGGAGTCACCTAGTGCAG | 8240 fluorescence intensity (a.u.) |
| TTCCTTCTTTCCATTTATTTTCTTTTATTTTCCCAAGAGACGGAGTCACCTAGTGCAG | 9060 fluorescence intensity (a.u.) |
| TATCCCACTTTATATTTTCTACGTGTCCGCATAACAGAACCGGAGTCACCTAGTGCAG | 8990 fluorescence intensity (a.u.) |
| AACTGGTGATACTCTGCTCTTAGTTTTATTTTTTTCCGAACGGAGTCACCTAGTGCAG | 8750 fluorescence intensity (a.u.) |
| GCCTTACTTTAGCACCTTGAAAGCCGTATACACAATTACACGGAGTCACCTAGTGCAG | 8490 fluorescence intensity (a.u.) |
| TTTTGTTCGTTCTCTTTCGCTCTCGAGGTCTCTCTCTCTCCGGAGTCACCTAGTGCAG | 9570 fluorescence intensity (a.u.) |
| AATATGTTTGTTTTGTGTTGAAAATACTACTAGATTTTTCCGGAGTCACCTAGTGCAG | 8720 fluorescence intensity (a.u.) |
| GGTCATTCCCGAGTCCCCATCTGGCCATCTCTCCAATCTCCGGAGTCACCTAGTGCAG | 8400 fluorescence intensity (a.u.) |
| AATCGCCGCAATATATCTCGCCCGTTGCTGCCAGGTTCAGCGGAGTCACCTAGTGCAG | 8880 fluorescence intensity (a.u.) |
| TCCCCGCCGATCACGCCGCTCGCCGCTCGCCACCGCCGGACGGAGTCACCTAGTGCAG | 8790 fluorescence intensity (a.u.) |
| CTTTGGCTTTTTCTCGGTCTTCGAAGTGGTATTCCGATGACGGAGTCACCTAGTGCAG | 8220 fluorescence intensity (a.u.) |
| CTTCTTTGGTCGTTTTGGCCTCGAGCTCCGTTCTTAAACTCGGAGTCACCTAGTGCAG | 10300 fluorescence intensity (a.u.) |
| TGCATCTCGCCTTATCCCCGCGCCGGCGCTAGGCGAATCGCGGAGTCACCTAGTGCAG | 8340 fluorescence intensity (a.u.) |
| TTTTTTCCTTTCAAGTGTGTACTGGCGCTAAATTCGCCTTCGGAGTCACCTAGTGCAG | 9650 fluorescence intensity (a.u.) |
| AACTTTTCTACATACACTTCCAACTTTTTTCGTTACATCGCGGAGTCACCTAGTGCAG | 8830 fluorescence intensity (a.u.) |
| ACCGTTTATCCGCATCGCTCTAATCCCTATCGTCCACAGGCGGAGTCACCTAGTGCAG | 10300 fluorescence intensity (a.u.) |
| TTGGTTGATGGCTAAGTTTACTATACCTCACTTTGCCACACGGAGTCACCTAGTGCAG | 8250 fluorescence intensity (a.u.) |
| TGTTTTGTTGTTGGCCATGGCCCATGCTCTGCACTGTGCACGGAGTCACCTAGTGCAG | 9440 fluorescence intensity (a.u.) |
| TCTCTCTGTGTGTGTTTGTGTCATATATGAGTTTGTGGGTCGGAGTCACCTAGTGCAG | 9570 fluorescence intensity (a.u.) |
| CTTCTCATTTTCTTTCTGGTGTCGTTTTTGTTTGACGATTCGGAGTCACCTAGTGCAG | 10600 fluorescence intensity (a.u.) |
| CGTCCGATTCATATAATTAGTCCTCAGTCGTCCGCCTAGTCGGAGTCACCTAGTGCAG | 10100 fluorescence intensity (a.u.) |
| TTATCCACCACCACCACCACCACGCCGCTCGCTGCCTTCGCGGAGTCACCTAGTGCAG | 11000 fluorescence intensity (a.u.) |
| CACAGGTTGCAGCTGCCTATAAAATAGACAGACGGCAAGTCGGAGTCACCTAGTGCAG | 10500 fluorescence intensity (a.u.) |
| TCAAACATATGAGAAAAAGTCAACGGCGTCATCTATTAAACGGAGTCACCTAGTGCAG | 8940 fluorescence intensity (a.u.) |
| TATAATTCTCTCTGTATGTATGTGCACATTGACCATGTCGCGGAGTCACCTAGTGCAG | 9580 fluorescence intensity (a.u.) |
| ATCATCAGCCACGCTTGCGGTCGCCACCATCTCGCCATCACGGAGTCACCTAGTGCAG | 9150 fluorescence intensity (a.u.) |
